# Experimental data reported in PMC12040169 (PLOS Biology, 2025).
# Some of the results follow.
# Test system: T1, CTL2-GFP (C. trachomatis L2/434/Bu, GFP-expressing)
# T1 construct: L2/434/Bu, GFP-expressing
# Set-up: species or system HeLa; Intracellular C. trachomatis growth in HeLa cells, bulk GFP fluorescence relative to DMSO
# Conditions: bulk GFP, single well; 28.5 h, 10 µM; inhibitor
row,Compound,% of control remaining [%]
1,COc1ccccc1Nc1nc(N)nc(CSc2nc3ccccc3s2)n1 [CBK266747],159.522
2,O=C(Nc1ccc(-c2ccoc2)cc1C(=O)O)OCc1ccc([N+](=O)[O-])cc1 [CBK000141D],123.601
3,O=C(c1ccco1)N1CCN(S(=O)(=O)c2ccc(Cl)cc2)CC1 [CBK068411],91.3445
4,CC(=O)N(C)c1ncc(Br)cc1C(=O)N(C)C [CBK076533],196.881
5,N=c1sc(Cc2cc(Cl)ccc2Cl)cn1CC(=O)c1ccccc1 [CBK263584B],124.781
6,C[C@@H]1CN(C(=O)c2cc3ccccc3n2C)C[C@H](C)O1 [CBK200234],126.696
7,Nc1cccc(-c2cncc(Nc3ccccc3)n2)c1 [CBK065265],218.324
8,COc1ccccc1Oc1ccc(C(F)(F)F)cc1[N+](=O)[O-] [CBK002845],99.3288
9,Nc1nn2c(c1Cc1c(Cl)cccc1Cl)OCC2 [CBK088759],128.239
10,CN1CCC(NC2(Cc3cc(-c4ccccn4)on3)COC2)CC1 [CBK289249],179.009
11,O=C(Nc1ccc(Cl)cc1)NC(C(=O)O)c1ccccc1 (stereo not shown) [CBK267405],100.629
12,CCc1cccc(CC)c1NC(=O)CN(c1cccc(Cl)c1Cl)S(C)(=O)=O [CBK265934],122.402
13,CCOC(=O)Cc1csc(NS(=O)(=O)c2cn(C)cn2)n1 [CBK000888],104.016
14,Cc1c(C)n(CC(O)CN2C(=O)c3ccccc3S2(=O)=O)c2ccccc12 (stereo not shown) [CBK263960],100
15,COc1cc(CNCc2ccccn2)ccc1OCc1cccc(Cl)c1 [CBK269877C],115.22
16,Nc1ccc2cc(-c3cccc(OCc4ccccc4)c3)cnc2n1 [CBK081172],100.437
17,CCCC/C=C/c1cnc(N)c(N2CCOCC2)n1 [CBK063398],199.304
18,CS(=O)(=O)c1ccc(CN2CCC3(CCN(Cc4ccccc4)CC3)C2)cc1 [CBK144066T],100
19,O=C(NCc1ccccc1OC1CCNC1)c1cnccn1 (stereo not shown) [CBK029462T],139.585
20,C=C[C@H]1C[N@@]2CC[C@H]1C[C@@H]2CNS(=O)(=O)c1cccc(C#N)c1 [CBK288750],107.552
21,CN(Cc1cnn(C)c1)C(=O)C1CCCN1Cc1ccccn1 (stereo not shown) [CBK305092],91.4158
22,COc1ccc(OC(=O)N2CCC(n3c(=O)[nH]c4ccccc43)CC2)cc1 [CBK149868],148.915
23,COc1ccccc1N1CCN(C2CCN(S(=O)(=O)c3ccc(NC(C)=O)cc3)CC2)CC1 [CBK264688],124.274
24,CC(C)c1ccccc1OCC(=O)N1CCCc2c(cnn2C)C1 [CBK285287],99.9731
25,COc1ccccc1CNCc1ccccc1OC [CBK262168],100
26,Cc1ccc(C(=O)N/C(=C\c2ccccc2F)c2n[nH]c(=S)[nH]2)cc1 [CBK263136],107.807
27,CCCN(C(=O)C1CC1)c1nc2c(s1)CCc1c-2cnn1C [CBK281930],102.116

# Taken from the listing for reference:
row,Compound,% of control remaining [%]
24,CC(C)c1ccccc1OCC(=O)N1CCCc2c(cnn2C)C1 [CBK285287],99.9731
25,COc1ccccc1CNCc1ccccc1OC [CBK262168],100
26,Cc1ccc(C(=O)N/C(=C\c2ccccc2F)c2n[nH]c(=S)[nH]2)cc1 [CBK263136],107.807
27,CCCN(C(=O)C1CC1)c1nc2c(s1)CCc1c-2cnn1C [CBK281930],102.116

# (more compounds)

row,Compound,% of control remaining [%]
1,N#CC1(NC(=O)CN2CCOC(Cn3cccn3)C2)CCCCC1 (stereo not shown) [CBK305268],135.009
2,Cc1cccnc1NC(=O)COc1ccc(Cl)cc1Cl [CBK262154],92.5341
3,CCn1c(N2CCC(C(=O)NCC3CC3)CC2)nc2ccccc21 [CBK283983],96.5003
4,COc1ccc(C)cc1C1(CNC(=O)C2CCC(=O)N2)CCOCC1 (stereo not shown) [CBK304967],117.567
5,Cc1cc(NC(=O)Cc2ccccc2)nc2c1c(=O)oc1ccccc12 [CBK291127],114.562
6,COc1ccc(-c2cc(C(=O)Nc3ccc(S(N)(=O)=O)cc3)c3ccccc3n2)cc1OC [CBK263635],100
7,COc1ccc(CN2CCC(Cc3ccccc3-c3cccc(F)c3)(C(N)=O)CC2)cc1 [CBK286277],153.309
8,CCC(c1ccccc1)N1CCN(Cc2noc(C)n2)CC1 (stereo not shown) [CBK305084],80.3646
9,O=C(C1=C(O)C(=O)N(Cc2ccncc2)C1c1cccc(OCc2ccccc2)c1)c1cccs1 (stereo not shown) [CBK266247],139.23
10,CC1(C)CC(=O)C2=C(C1)NC(Nc1nc3ccccc3s1)=NC2c1cccnc1 (stereo not shown) [CBK270025],103.221
11,Cc1ccnc2nc(C(=O)OCC(=O)Nc3ccc4c(c3)CCC4)nn12 [CBK305853],101.06
12,Cc1nn(CC(C)C(=O)NCCN2CCC(C)CC2)c(C)c1Cl (stereo not shown) [CBK281570],120.459
13,COc1cc(OC)nc(CN2C(=O)CC3(C2=O)C(=O)N(CCCN(C)C(=O)c2ccco2)c2ccc(F)cc23)n1 (stereo not shown) [CBK076006],112.851
14,COc1ccc(N2CC(C(=O)N(C)CC(F)(F)F)CC2=O)cc1 (stereo not shown) [CBK281510],139.764
15,O=C(O)CC1SC(Nc2ccc(F)cc2F)=NC1=O (stereo not shown) [CBK200115],114.112
16,COc1ccc(-c2ccc(=O)n3c2[C@@H]2C[C@@H](CN(C(=O)NC4CCCCC4)C2)C3)cc1 [CBK289189],152.608
17,Cc1ccc(CC(=O)N2CCC(Cc3ccccc3-c3ccccc3C)(C(N)=O)CC2)cc1 [CBK285727],96.1603
18,O=C(Nc1ccc2oc(-c3cccnc3)nc2c1)c1ccc(N2CCOCC2)c([N+](=O)[O-])c1 [CBK268664],83.2987
19,CC(C)c1ccc(C(C)NC(=O)Cn2cccc(C(=O)NC3CCCCC3)c2=O)cc1 (stereo not shown) [CBK286044],107.503
20,COc1ccc(C(C)C)cc1-c1nc(N)cc2cccnc12 [CBK081178],94.0635
21,Cc1c(-c2cccc(NC(=O)c3ccccc3)c2)nc2ncccn12 [CBK287504],142.248
22,Cc1cccc(-n2ncc3c(NCCCN4CCOCC4)ncnc32)c1 [CBK265710],202.778
23,CCC1CCCCN1C(=O)c1ccc(C(F)(F)F)cc1 (stereo not shown) [CBK081165],133.361
24,CN(C)C1=NC(N(C)C)=NP(N(C)C)(N(C)C)=N1 [CBK261057],102.435
25,CCC(C)NC(=O)CSc1nnc(-c2cccs2)n1CC (stereo not shown) [CBK296960],97.4605
26,Cc1c(C(=O)N(C)Cc2csc3ccccc23)nnn1C1CCNCC1 [CBK304103],97.8304
27,Cc1cc2c(cc3c(=O)n(CC(=O)NC4CCC4)nc(C)n32)s1 [CBK284118],106.052

row,Compound,% of control remaining [%]
1,CCCCN(CCCC)c1nccnc1Cl [CBK001576],103.881
2,CC(=O)Nc1ccc(NC(=O)/C=C/c2ccc(Cl)cc2)cc1 [CBK264766],86.8877
3,O=C(CCc1nc2ccccc2c(=O)[nH]1)N1CCN(Cc2ccc(Cl)s2)CC1 [CBK296937],117.243
4,Cc1cccn2c(CN3CC(O)C3)c(C(=O)N3CCCCC3)nc12 [CBK306662],127.646
5,O=C(O)c1cc(S(=O)(=O)NC(CO)C(O)c2ccc([N+](=O)[O-])cc2)ccc1Br (stereo not shown) [CBK262515],122.295
6,Cc1ccc(-n2nnc3c(SCC(=O)Nc4ccc(F)cc4)ncnc32)cc1 [CBK287542],116.527
7,Cc1cc(N2CCN(C(=O)CCc3ccco3)CC2)nc(C(C)C)n1 [CBK305367],109.573
8,CC(NC(=O)n1ccc2c(N3CCNCC3)cccc21)c1ccccc1 (stereo not shown) [CBK003729C],144.274
9,CCN1C(=O)/C(=C\NN=C2CCCC2)c2ccc(C3=NNC(=O)CC3)cc21 [CBK263515],100
10,COc1ccc(-c2nc(=S)c3c(n2CCCO)CCCC3)cc1 [CBK027898],132.478
11,CCCS(=O)(=O)NC1CC(C)(C)Cc2c1cnn2-c1ccc(OC)cc1 (stereo not shown) [CBK306730],118.525
12,Cc1ccc(S(=O)(=O)N2CCN(CCC(=O)O)CC2)cc1C [CBK269416],105.031
13,O=C(c1ccoc1)N1CCC2(CCCN(Cc3c(F)cccc3F)C2)C1 (stereo not shown) [CBK132806],68.9614
14,O=C(O)c1ccc(-c2n[nH]c(=O)c3c2CCCC3)cc1 [CBK287868],118.592
15,COCCn1ccnc1C1CCN(C(=O)COc2cccc(F)c2)CC1 [CBK307362],108.639
16,Cc1nccn1CCC(=O)NCCc1ccc(N(C)C)cc1 [CBK281954],127.904
17,Cc1nnc2n1-c1ccccc1SC(c1ccccc1)C2 (stereo not shown) [CBK016040],98.918
18,CC(C)(C)c1cc(CN2CCN(c3ccccn3)CC2)cc(C(C)(C)C)c1O [CBK261520],76.4151
19,COc1cc(C(=O)N2CCC3(CC2)CC(=O)c2cc(C)ccc2O3)cc(-c2ccc(OC)c(OC)c2)c1 [CBK168271],137.183
20,Cc1nc(=O)c(-c2ccccc2)c(C)n1-c1ccc(OCC(=O)O)cc1 [CBK286615],129.358
21,CCc1ccc2c(c1)C(CCNC(=O)c1ncccc1F)C(=O)N2 (stereo not shown) [CBK304727],109.003
22,CC(=O)Nc1ccc(-c2cncc(NCCCO)n2)cc1 [CBK065598],109.565
23,O=c1[nH]c(=O)c2cc(S(=O)(=O)N3CCC(c4ccccc4)C3)ccc2[nH]1 (stereo not shown) [CBK286382],98.1751
24,CN(C)Cc1c(O)ccc2occ(C(=O)c3ccccc3)c12 [CBK261965],119.638
25,COc1ccccc1C(=O)Nc1ccc2nc(SCC(=O)NC3CC3)sc2c1 [CBK070791],93.7577
